Article PMC12040169 (PLOS Biology, 2025)
The other results are listed elsewhere or left out.

Test system: T1, CTL2-GFP (C. trachomatis L2/434/Bu, GFP-expressing)
T1 construct: L2/434/Bu, GFP-expressing
Design: species or system HeLa; Intracellular C. trachomatis growth in HeLa cells, bulk GFP fluorescence relative to DMSO
Conditions: bulk GFP, single well; 28.5 h, 10 µM; inhibitor

SMILES	% of control remaining
COc1ccc(Cn2c(=O)n(S(=O)(=O)c3ccc(-c4cc(C(F)(F)F)n(C)n4)s3)c3ccccc32)cc1 [CBK106552]	139.655%
CCC(NC(=O)Nc1ccc(N2CCOCC2)nc1)c1cnn(CC)c1 (stereo not drawn) [CBK305172]	107.118%
Cc1nn(C)cc1S(=O)(=O)Nc1ccc2c(ccn2C)c1 [CBK282806]	158.198%
Cc1ccc(NC(=O)CC2Nc3ccccc3OC2=O)cc1C (stereo not drawn) [CBK270214]	156.727%
CCSc1nnnn1-c1cccc(NC(C)=O)c1 [CBK305511]	117.05%
CC(C)(C)OC(=O)N1CCC(Oc2nccnc2Cl)CC1 [CBK067386]	149.858%
O=C(c1ccncc1)N1CCCCC1c1nc2ccccc2[nH]1 (stereo not drawn) [CBK281641]	121.02%
COc1ccc(S(=O)(=O)N2CCSC2)cc1C [CBK097882]	99.0471%
COC(=O)c1cc(=O)c2ccccc2o1 [CBK000064]	127.11%
Cc1nc(NC(=O)Cn2nc(N3CCSCC3)ccc2=O)sc1C [CBK307622]	70.097%
COc1ccc(-n2c(=O)[nH]cc(C(=O)Nc3cc(C)ccc3OC)c2=O)cc1 [CBK287548]	111.231%
N/C(=N\OC(=O)c1cc(-c2ccccc2)nc2ccccc12)c1cccnc1 [CBK265106]	195.531%
Cc1nn(-c2ccccn2)c(C)c1[C@@H]1C=C[C@@H](NS(C)(=O)=O)C1 [CBK289169]	131.611%
CC(=O)Nc1ccc(S(=O)(=O)N2CCCCC2C(=O)O)cc1 (stereo not drawn) [CBK265241]	120.75%
CC(=O)Nc1cccc(NC(=O)c2ccc(CN3CCCCC3)cc2)c1 [CBK295596]	141.481%
FC(F)(F)c1ccc(SCc2ccc(Cl)c(Cl)c2)nc1 [CBK103713]	106.591%
CC(C)C(=O)NCCn1nc(-c2ccccc2F)cc1CN(C)C [CBK281693]	134.941%
COc1cc(C(C[N+](=O)[O-])c2c(C)[nH]c3ccccc23)ccc1O (stereo not drawn) [CBK115317]	108.683%
O=C(O)C(c1c[nH]c2ccccc12)N1CCc2ccccc2C1 (stereo not drawn) [CBK286664]	118.045%
CSc1nc(C)c(CCC(=O)Nc2ccc(N3CC(C)OC(C)C3)nc2)c(C)n1 (stereo not drawn) [CBK298266]	135.877%
CCn1nc(C)c(-c2cncn2Cc2ccccc2CN(C)C)c1C [CBK281998]	129.842%

SMILES	% of control remaining
COc1ccc2c3c(cc(Cl)cc13)CC(N)C2 (stereo not drawn) [CBK016450C]	86.269%
CCNC(=O)Nc1c[nH]nc1C1CCCN(c2cccc(F)c2C#N)C1 (stereo not drawn) [CBK306406]	129.07%
NC(=O)CSc1nnc(-c2cc3ccccc3o2)n1Cc1ccccc1 [CBK268964]	152.865%
Cc1ccc(CN2C(=O)CC(Sc3ncccc3C(=O)O)C2=O)cc1 (stereo not drawn) [CBK270006]	99.4166%
Nc1nc(CN2C(=O)c3ccccc3C2=O)n[nH]1 [CBK266655]	118.897%
CCOc1ccccc1NC(=O)NC(=O)C1CCN(C(C)c2ccc(Cl)cc2)CC1 (stereo not drawn) [CBK034899]	142.807%
CN(C)c1cccc(-c2cncc(NCCCO)n2)c1 [CBK065619]	88.6117%
Cc1ccn(CCNC(=O)c2cc(-c3cccs3)no2)n1 [CBK282679]	118.201%
CCn1cc(C2CN(S(=O)(=O)c3c(C)c(C)cc(C)c3C)CCO2)cn1 (stereo not drawn) [CBK306171]	129.273%
Cc1sc2ncn(Cc3c(Cl)cccc3Cl)c(=O)c2c1C [CBK265355]	100%
CCCCn1c(SCC(=O)NCC2(c3ccc4c(c3)OCCO4)CCCC2)n[nH]c1=O [CBK296736]	113.663%
C[C@H]1CN([C@H]2C[C@@H](O)[C@@H](CO)O2)C(=O)NC1=O [CBK201206]	118.65%
CCc1[nH]c2ccc(C(=O)NCCn3ccnc3C)cc2c1C [CBK282505]	125.518%
c1cncc(-c2cncc(NCCc3c[nH]c4ccccc34)n2)c1 [CBK065186]	114.86%
Cc1cccc(C)c1N(C1CCNCC1)S(=O)(=O)c1ccc2c(c1)CCO2 [CBK153668T]	109.988%
CCOC(=O)c1c(C)n(-c2ccc(OC)cc2)c2ccc(O)c(CN(C)C)c12 [CBK261609C]	115.821%
CC(c1ccc(F)c(F)c1)N(C)C(=O)CN1CCCc2occc2C1 (stereo not drawn) [CBK304456]	128.008%
CCOc1ccc(-c2cncc(Nc3ccc(C#N)cc3)n2)cc1 [CBK065862]	123.389%
CC(=O)Nc1ccc(CN2CCCCCC2c2cc(C)no2)cc1 (stereo not drawn) [CBK285415]	127.689%
COc1ccccc1-c1noc(CCCC(=O)Nc2cccnc2)n1 [CBK268848]	116.608%
Cn1nc(C2CCN(C(=O)C3CCCC3)CC2)c2cccnc21 [CBK284899]	85.6308%

22 compounds from above, arranged by formula weight, high to low.
SMILES	% of control remaining
CCCCn1c(SCC(=O)NCC2(c3ccc4c(c3)OCCO4)CCCC2)n[nH]c1=O [CBK296736]	113.663%
CCOc1ccccc1NC(=O)NC(=O)C1CCN(C(C)c2ccc(Cl)cc2)CC1 (stereo not drawn) [CBK034899]	142.807%
CSc1nc(C)c(CCC(=O)Nc2ccc(N3CC(C)OC(C)C3)nc2)c(C)n1 (stereo not drawn) [CBK298266]	135.877%
Cc1cccc(C)c1N(C1CCNCC1)S(=O)(=O)c1ccc2c(c1)CCO2 [CBK153668T]	109.988%
CCOC(=O)c1c(C)n(-c2ccc(OC)cc2)c2ccc(O)c(CN(C)C)c12 [CBK261609C]	115.821%
CCn1cc(C2CN(S(=O)(=O)c3c(C)c(C)cc(C)c3C)CCO2)cn1 (stereo not drawn) [CBK306171]	129.273%
NC(=O)CSc1nnc(-c2cc3ccccc3o2)n1Cc1ccccc1 [CBK268964]	152.865%
CCNC(=O)Nc1c[nH]nc1C1CCCN(c2cccc(F)c2C#N)C1 (stereo not drawn) [CBK306406]	129.07%
CC(c1ccc(F)c(F)c1)N(C)C(=O)CN1CCCc2occc2C1 (stereo not drawn) [CBK304456]	128.008%
Cc1sc2ncn(Cc3c(Cl)cccc3Cl)c(=O)c2c1C [CBK265355]	100%
CCn1nc(C)c(-c2cncn2Cc2ccccc2CN(C)C)c1C [CBK281998]	129.842%
CC(=O)Nc1ccc(CN2CCCCCC2c2cc(C)no2)cc1 (stereo not drawn) [CBK285415]	127.689%
COc1cc(C(C[N+](=O)[O-])c2c(C)[nH]c3ccccc23)ccc1O (stereo not drawn) [CBK115317]	108.683%
CCOc1ccc(-c2cncc(Nc3ccc(C#N)cc3)n2)cc1 [CBK065862]	123.389%
c1cncc(-c2cncc(NCCc3c[nH]c4ccccc34)n2)c1 [CBK065186]	114.86%
Cn1nc(C2CCN(C(=O)C3CCCC3)CC2)c2cccnc21 [CBK284899]	85.6308%
CCc1[nH]c2ccc(C(=O)NCCn3ccnc3C)cc2c1C [CBK282505]	125.518%
Cc1ccn(CCNC(=O)c2cc(-c3cccs3)no2)n1 [CBK282679]	118.201%
CN(C)c1cccc(-c2cncc(NCCCO)n2)c1 [CBK065619]	88.6117%
COc1ccc2c3c(cc(Cl)cc13)CC(N)C2 (stereo not drawn) [CBK016450C]	86.269%
C[C@H]1CN([C@H]2C[C@@H](O)[C@@H](CO)O2)C(=O)NC1=O [CBK201206]	118.65%
Nc1nc(CN2C(=O)c3ccccc3C2=O)n[nH]1 [CBK266655]	118.897%

(more compounds)

SMILES	% of control remaining
Cc1nc2c(OCC(=O)c3ccc(Cl)cc3Cl)cccn2c1N(C)CC1CC1 [CBK147294]	131.827%
O=C(NCC(O)c1ccccc1)c1ccc(Cl)c(S(=O)(=O)N2CCCCC2)c1 (stereo not drawn) [CBK269197]	102.39%
COc1ccc(-c2cnc3[nH]c(=O)n(CCN4CCOCC4)c3n2)cc1 [CBK064782]	94.3339%
CC1CCc2n[nH]c(C(=O)N(C)CCc3ccncc3)c2C1 (stereo not drawn) [CBK283195]	111.74%
CCN(CC)CCCNC(=O)N1CCN(c2ccc(F)cc2)CC1 [CBK156419]	195.946%
CC(=O)Nc1ccc(-c2ccc(COC3CCN(C(=O)Cc4ccc(C#N)cc4)CC3)cc2)cc1 [CBK149225]	94.1558%
CCOc1ccc(OC(=O)c2cccc(C)c2)cc1 [CBK083575]	102.531%
CC1CCc2c(sc(NC(=O)c3ccno3)c2C(N)=O)C1 (stereo not drawn) [CBK287752]	98.339%
CCOCCn1c(N2CCCC(C)C2)nc2c1c(=O)[nH]c(=O)n2C (stereo not drawn) [CBK304304]	112.334%
Cn1c(NCc2ccco2)nc2c1c(=O)n(Cc1cccc(Br)c1)c(=O)n2C [CBK268863]	97.6717%
Cc1nc(CN2CCCC(NCc3ccc(C(N)=O)cc3)C2)no1 (stereo not drawn) [CBK304962]	89.9055%
CN(C)CC(=O)NC(Cc1ccsc1)c1nccs1 (stereo not drawn) [CBK284801]	119.946%
COc1ccc2cc(COC(=O)c3cnc(C)cn3)c(Cl)nc2c1 [CBK295288]	115.356%
CC(=O)Nc1nnc(-c2ccc(Cl)cc2)s1 [CBK287331]	122.866%
Cc1cc(-c2nnc(SCC(=O)N3CCOCC3)o2)no1 [CBK268984]	70.1817%
Cc1ccc(NS(=O)(=O)c2cccs2)cc1 [CBK045362]	163.404%
CC(C)C(=O)NC(=S)Nc1ccc2oc(-c3ccncc3)nc2c1 [CBK269702]	139.066%
CCCc1n[nH]c(C2CC2)c1C(=O)OCC [CBK115714]	112.633%
CCCN1CC(NS(=O)(=O)c2ccc3oc(=O)n(C)c3c2)CC1=O (stereo not drawn) [CBK307664]	106.641%
c1ccc(N2CCN(c3cncc(-c4cccs4)n3)CC2)nc1 [CBK065502]	121.374%
O=C(c1cccnc1)N1CCN(CCN2C(=O)C3C4C=CC(C4)C3C2=O)CC1 (stereo not drawn) [CBK263639]	100%

SMILES	% of control remaining
O=[N+]([O-])c1ccc(S(=O)(=O)N2CCN(S(=O)(=O)c3ccc(Cl)cc3)CC2)cc1 [CBK264312]	122.578%
CS(=O)(=O)c1ccccc1S(=O)(=O)N1CCN(c2nc3ccccc3s2)CC1 [CBK269468]	120.53%
NC(C(=O)O)C(O)c1ccccc1[N+](=O)[O-] (stereo not drawn) [CBK262389]	100%
FC(F)(F)c1ccc(OCCN2CCOCC2)nc1 [CBK113461]	71.4439%
Cn1cnc2cc(NCc3cc(-c4ccc(F)cc4)c[nH]c3=O)ccc21 [CBK284693]	117.878%
COC(=O)c1c(NC(=S)Nc2ccn(C)n2)sc2c1CCCCC2 [CBK266888]	101.038%
CN(C(=O)Cc1ccccc1)c1ccccc1 [CBK012581]	102.622%
O=C(NCCN1CCCC1)c1cnc2cc(C(F)(F)F)ccc2c1O [CBK107426]	141.571%
O=C(CN(c1ccccc1)S(=O)(=O)c1ccccc1)N1CCN(Cc2ccc3c(c2)OCO3)CC1 [CBK265290]	124.872%
CCC(=O)N1CCC2(C/C=C/CC(=O)Nc3cccc(n3)C3CN(CCO3)C(=O)CN(C)C2=O)CC1 (stereo not drawn) [CBK292004]	138.428%
COc1ccccc1-c1nccnc1N1CCCC1CO (stereo not drawn) [CBK036735]	151.634%
Cc1ccc(-c2noc(CN3CCN(c4ccccn4)CC3)n2)cc1 [CBK266457]	138.493%
CC(=O)NCC(CN1CCOCC1)([N+](=O)[O-])[N+](=O)[O-] [CBK261337]	116.443%
CN(Cc1nc2ccccc2c(=O)[nH]1)Cc1cc2c(cc1Br)OCCO2 [CBK296715]	90.9001%
NC1=C(c2nc3ccccc3s2)C(=O)CN1CCCN1CCOCC1 [CBK265925]	229.638%
c1cncc(-c2nccnc2NCCCN2CCOCC2)c1 [CBK037286]	122.64%
CC(C)c1nccn1CCCn1cncc1-c1cnn(C)c1 [CBK281812]	141.992%
CC(=O)Nc1ccc(-c2nc[nH]c2Br)cc1 [CBK019063]	98.2107%
